Results as given in patent publication US10457916B2, “Method for inducing differentiation of insulin-producing cells” (TOKYO INSTITUTE OF TECHNOLOGY, priority 2014, dated 2019).
At least one compound was matched to its structure with a doubt left.

Tests used:
[1] = system: endocrine progenitor cells; experiment: Stage 5 differentiation into endocrine cells, quantitative RT-PCR; type: cell-based, human; conditions: added to basal medium (DMEM/F12, 1% B27, exendin-4 and nicotinamide) at stage 5, versus DMSO
Description: (§1) To this medium were added 50 ng/ml exendin-4 (Ex-4; Cell Sciences), 10 mM nicotinamide (NA; Sigma-Aldrich), and/or 100 μM 3-isobutyl-1-methylxanthine (IBMX; phosphodiesterase inhibitor; Wako), and/or 10 μM forskolin (FRKL; adenylate cyclase activator; Wako). The media were changed every two days.

[2] = system: endocrine progenitor cells; experiment: Stage 5 differentiation into endocrine cells, immunocytochemistry; type: cell-based, human
Description: as §1

[3] = FRKL-based environment versus IBMX-based environment

For `C=C[C@@]1(C)CC(=O)[C@]2(O)[C@@]3(C)[C@@H](O)CCC(C)(C)[C@@H]3[C@H](O)[C@H](OC(C)=O)[C@@]2(C)O1` [FRKL, forskolin], which INS expression [1] is on record?
Its INS expression is “significantly upregulated”.

And the “number of PDX1 single positive cells” value [2, 3]?
The value was “higher”.

And the “numbers of SST-positive and CP/SST-double positive cells” value [2, 3]?
Its value is “relatively higher”.

What about the “proportion of CP/SST double-positive cells versus DMSO-treated cells” value ([2]; end of stage 5) of the same compound?
Its value is “significantly higher”.

What about the “proportion of SST single-positive cells versus DMSO-treated cells” value ([2]; end of stage 5) of the same compound?
The value was “higher”.
